For test [1], the target named is SOCS2 bait of the two proteomic screens (Myc-BirA-T7-mSOCS2 or 3xFlag-hSOCS2) (not stated (human or mouse cDNA cloned)) (UniProt O14508). Nature of the test: proximity labelling + affinity purification with mass spectrometry; hits of the BioID and Flag AP-MS screens in Flp-In T-Rex 293 (vanadate, MLN4924, doxycycline) for which the text does not tell which of the two methods found them; Bayesian false discovery rate <10%.

Protein sequences, listed by entry. Tags and fused reporters are not part of them. Residues count along the entry.
UniProt O14508: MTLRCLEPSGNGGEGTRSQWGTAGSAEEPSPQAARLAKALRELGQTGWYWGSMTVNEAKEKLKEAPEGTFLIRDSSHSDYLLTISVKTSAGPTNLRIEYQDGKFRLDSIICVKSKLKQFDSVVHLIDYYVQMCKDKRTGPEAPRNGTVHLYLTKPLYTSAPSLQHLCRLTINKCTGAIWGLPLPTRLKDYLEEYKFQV
UniProt P61201: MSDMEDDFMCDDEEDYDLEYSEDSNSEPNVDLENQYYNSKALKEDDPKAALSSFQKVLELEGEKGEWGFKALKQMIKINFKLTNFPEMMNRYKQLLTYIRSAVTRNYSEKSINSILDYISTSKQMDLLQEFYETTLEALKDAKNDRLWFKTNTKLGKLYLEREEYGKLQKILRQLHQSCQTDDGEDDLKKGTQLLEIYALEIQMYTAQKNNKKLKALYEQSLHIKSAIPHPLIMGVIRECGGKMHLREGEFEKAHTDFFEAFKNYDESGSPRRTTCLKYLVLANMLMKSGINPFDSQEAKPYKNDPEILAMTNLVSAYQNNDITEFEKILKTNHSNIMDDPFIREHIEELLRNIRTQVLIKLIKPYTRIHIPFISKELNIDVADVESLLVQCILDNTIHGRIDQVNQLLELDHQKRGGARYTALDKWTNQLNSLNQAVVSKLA
UniProt Q9UNS2: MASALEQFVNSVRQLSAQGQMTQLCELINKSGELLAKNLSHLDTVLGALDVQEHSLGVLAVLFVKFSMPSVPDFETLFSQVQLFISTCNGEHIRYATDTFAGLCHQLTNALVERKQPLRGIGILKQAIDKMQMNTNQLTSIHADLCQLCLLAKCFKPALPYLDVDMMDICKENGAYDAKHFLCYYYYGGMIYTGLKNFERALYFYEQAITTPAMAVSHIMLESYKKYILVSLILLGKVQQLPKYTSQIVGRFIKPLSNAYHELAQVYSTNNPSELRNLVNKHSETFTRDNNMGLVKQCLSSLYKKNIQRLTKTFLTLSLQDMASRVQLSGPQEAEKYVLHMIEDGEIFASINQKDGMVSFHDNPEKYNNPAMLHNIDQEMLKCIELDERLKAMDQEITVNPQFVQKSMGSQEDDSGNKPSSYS
UniProt P35222: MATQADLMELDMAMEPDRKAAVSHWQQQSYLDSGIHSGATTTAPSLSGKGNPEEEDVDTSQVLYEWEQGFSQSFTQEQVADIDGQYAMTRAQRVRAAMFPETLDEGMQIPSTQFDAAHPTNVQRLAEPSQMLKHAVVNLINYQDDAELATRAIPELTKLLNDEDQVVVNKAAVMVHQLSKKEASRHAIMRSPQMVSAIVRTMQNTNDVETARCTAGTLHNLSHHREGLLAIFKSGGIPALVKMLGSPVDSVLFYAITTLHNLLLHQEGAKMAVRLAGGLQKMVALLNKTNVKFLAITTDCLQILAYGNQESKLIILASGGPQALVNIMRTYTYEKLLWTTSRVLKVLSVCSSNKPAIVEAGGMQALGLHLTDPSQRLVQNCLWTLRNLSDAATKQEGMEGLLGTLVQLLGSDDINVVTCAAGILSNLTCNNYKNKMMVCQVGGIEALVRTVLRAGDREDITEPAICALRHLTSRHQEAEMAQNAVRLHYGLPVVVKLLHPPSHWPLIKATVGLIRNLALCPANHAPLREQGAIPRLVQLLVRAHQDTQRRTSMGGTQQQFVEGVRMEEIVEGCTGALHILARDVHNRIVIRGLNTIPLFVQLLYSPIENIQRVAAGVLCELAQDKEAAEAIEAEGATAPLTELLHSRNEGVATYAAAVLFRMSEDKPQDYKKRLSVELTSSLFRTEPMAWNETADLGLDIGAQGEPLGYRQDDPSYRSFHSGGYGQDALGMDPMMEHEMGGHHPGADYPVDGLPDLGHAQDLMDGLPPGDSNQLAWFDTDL
UniProt P46108: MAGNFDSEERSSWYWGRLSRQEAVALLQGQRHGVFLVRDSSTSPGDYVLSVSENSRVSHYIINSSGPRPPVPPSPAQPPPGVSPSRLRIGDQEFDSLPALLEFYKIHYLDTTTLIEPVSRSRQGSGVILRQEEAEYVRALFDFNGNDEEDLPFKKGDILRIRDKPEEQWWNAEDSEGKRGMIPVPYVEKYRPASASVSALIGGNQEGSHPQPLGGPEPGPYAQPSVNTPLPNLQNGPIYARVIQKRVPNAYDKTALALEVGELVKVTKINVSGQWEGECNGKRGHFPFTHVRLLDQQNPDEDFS
UniProt Q93034: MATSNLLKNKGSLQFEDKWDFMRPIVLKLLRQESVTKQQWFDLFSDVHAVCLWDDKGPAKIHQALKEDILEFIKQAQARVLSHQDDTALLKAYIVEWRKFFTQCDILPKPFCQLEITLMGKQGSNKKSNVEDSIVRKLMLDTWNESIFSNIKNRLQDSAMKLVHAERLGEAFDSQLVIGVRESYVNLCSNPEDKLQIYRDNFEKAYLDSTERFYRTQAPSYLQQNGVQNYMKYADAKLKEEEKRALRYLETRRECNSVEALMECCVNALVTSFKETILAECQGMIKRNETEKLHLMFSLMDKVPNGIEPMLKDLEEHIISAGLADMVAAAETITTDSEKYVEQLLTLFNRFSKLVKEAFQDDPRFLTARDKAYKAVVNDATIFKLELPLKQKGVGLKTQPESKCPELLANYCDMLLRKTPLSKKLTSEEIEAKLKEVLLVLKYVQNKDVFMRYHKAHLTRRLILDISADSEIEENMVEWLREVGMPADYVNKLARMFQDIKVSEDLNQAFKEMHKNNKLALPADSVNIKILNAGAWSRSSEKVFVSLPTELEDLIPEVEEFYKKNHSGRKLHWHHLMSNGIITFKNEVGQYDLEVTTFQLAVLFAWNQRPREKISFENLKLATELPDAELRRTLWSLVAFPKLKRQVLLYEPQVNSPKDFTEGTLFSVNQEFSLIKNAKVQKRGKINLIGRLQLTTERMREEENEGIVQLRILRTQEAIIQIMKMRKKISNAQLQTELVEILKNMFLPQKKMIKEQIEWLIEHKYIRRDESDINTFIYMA
UniProt P15311: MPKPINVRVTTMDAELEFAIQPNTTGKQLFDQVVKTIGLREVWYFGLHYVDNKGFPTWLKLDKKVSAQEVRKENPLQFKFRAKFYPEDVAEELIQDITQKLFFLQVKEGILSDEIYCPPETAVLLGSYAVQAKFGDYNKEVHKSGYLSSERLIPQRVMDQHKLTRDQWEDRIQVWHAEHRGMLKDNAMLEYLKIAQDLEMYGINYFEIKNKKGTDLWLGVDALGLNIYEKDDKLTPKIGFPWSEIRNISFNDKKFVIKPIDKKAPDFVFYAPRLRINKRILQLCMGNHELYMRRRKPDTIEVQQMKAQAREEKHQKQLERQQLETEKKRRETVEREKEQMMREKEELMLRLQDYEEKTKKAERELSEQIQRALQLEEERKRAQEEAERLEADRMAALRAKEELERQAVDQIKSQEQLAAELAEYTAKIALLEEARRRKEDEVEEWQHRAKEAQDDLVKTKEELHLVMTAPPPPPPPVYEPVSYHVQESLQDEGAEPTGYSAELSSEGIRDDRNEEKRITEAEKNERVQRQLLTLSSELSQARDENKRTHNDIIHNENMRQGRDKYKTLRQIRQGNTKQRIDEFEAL
UniProt P04406: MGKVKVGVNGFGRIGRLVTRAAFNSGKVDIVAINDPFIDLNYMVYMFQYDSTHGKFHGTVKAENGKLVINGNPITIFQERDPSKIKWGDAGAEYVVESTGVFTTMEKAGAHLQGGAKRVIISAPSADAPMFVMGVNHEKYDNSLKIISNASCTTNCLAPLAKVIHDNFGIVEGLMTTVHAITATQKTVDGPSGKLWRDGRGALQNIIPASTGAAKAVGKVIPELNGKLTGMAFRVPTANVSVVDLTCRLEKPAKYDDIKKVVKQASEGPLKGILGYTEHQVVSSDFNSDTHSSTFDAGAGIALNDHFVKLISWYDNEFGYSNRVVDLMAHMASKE
UniProt P51692: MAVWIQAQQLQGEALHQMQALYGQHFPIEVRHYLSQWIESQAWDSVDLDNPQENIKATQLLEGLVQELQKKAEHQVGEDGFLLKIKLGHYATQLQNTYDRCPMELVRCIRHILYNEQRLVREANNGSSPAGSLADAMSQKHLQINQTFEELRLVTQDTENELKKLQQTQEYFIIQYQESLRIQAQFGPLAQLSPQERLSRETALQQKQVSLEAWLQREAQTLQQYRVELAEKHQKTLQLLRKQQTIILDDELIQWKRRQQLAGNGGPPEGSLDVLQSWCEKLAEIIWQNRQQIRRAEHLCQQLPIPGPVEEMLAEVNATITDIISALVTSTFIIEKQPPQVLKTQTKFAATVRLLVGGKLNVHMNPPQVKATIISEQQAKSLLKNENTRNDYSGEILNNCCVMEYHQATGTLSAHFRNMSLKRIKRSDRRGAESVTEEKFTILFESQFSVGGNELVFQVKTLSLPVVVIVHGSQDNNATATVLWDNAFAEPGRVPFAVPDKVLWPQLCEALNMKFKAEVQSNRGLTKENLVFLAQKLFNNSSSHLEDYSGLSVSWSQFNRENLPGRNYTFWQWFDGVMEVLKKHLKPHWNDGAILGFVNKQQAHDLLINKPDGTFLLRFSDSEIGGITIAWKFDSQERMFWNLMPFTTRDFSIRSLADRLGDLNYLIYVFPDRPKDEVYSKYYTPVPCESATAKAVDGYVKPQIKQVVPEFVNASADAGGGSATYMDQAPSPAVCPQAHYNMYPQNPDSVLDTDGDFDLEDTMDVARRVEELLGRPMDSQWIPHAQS
UniProt Q15370: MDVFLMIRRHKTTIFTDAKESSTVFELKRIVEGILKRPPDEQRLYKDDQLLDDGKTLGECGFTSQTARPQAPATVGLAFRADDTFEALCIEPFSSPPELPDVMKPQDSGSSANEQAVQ
UniProt Q9UMX0: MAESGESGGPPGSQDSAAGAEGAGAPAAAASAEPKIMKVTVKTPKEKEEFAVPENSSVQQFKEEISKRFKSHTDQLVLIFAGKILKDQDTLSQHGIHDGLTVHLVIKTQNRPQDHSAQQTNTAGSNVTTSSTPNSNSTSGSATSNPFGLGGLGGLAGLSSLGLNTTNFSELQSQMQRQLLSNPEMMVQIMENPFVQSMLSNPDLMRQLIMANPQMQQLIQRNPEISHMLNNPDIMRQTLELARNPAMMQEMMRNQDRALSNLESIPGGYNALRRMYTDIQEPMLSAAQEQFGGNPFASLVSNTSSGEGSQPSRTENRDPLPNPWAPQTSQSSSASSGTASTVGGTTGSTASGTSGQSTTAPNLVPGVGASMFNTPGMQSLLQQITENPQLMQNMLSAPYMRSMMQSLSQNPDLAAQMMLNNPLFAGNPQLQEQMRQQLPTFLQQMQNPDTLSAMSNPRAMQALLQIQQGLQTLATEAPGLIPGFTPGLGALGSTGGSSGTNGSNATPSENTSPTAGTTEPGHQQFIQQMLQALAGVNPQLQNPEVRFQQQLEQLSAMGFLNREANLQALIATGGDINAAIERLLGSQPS
UniProt P29317, residues 24-976: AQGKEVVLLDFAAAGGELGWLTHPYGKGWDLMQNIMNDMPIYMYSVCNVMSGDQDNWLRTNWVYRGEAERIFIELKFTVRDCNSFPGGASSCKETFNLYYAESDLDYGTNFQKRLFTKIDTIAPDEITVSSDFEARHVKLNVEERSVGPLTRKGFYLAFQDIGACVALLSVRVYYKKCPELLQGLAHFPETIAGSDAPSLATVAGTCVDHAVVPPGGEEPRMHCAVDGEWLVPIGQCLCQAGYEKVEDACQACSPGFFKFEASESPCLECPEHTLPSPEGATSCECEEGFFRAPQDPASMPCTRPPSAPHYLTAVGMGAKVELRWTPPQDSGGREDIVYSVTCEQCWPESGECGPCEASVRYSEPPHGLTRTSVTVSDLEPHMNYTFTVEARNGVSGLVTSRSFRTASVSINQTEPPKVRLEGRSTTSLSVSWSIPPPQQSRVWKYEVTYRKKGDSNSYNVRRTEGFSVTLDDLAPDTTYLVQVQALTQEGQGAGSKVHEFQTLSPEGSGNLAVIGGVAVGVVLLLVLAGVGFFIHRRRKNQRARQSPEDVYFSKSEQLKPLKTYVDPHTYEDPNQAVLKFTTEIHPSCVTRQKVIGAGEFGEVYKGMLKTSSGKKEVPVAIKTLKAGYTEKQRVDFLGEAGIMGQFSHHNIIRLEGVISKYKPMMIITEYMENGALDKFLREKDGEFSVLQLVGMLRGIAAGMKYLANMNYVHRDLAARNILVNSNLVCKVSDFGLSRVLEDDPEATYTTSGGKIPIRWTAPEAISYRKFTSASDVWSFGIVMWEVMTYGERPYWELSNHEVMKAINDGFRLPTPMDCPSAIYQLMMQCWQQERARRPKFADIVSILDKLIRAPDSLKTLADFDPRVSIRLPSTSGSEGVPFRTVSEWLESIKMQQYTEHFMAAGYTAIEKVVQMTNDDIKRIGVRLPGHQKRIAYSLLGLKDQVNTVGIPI
UniProt P36543: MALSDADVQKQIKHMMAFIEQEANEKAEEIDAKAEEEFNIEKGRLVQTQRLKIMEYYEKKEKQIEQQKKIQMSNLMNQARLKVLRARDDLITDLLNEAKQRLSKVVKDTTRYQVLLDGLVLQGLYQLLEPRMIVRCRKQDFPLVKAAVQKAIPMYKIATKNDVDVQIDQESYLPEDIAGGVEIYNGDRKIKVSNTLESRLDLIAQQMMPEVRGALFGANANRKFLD

For test [2], the target named is T1, Myc-BirA-T7-mSOCS2 (mouse) (UniProt O35717).
T1 sequence: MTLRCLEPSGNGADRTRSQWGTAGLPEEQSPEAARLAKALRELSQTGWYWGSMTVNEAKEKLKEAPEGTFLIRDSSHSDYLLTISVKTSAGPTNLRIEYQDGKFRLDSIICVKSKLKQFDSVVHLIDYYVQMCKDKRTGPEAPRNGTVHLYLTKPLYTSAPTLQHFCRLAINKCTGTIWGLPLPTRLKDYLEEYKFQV
Nature of the test: proximity labelling; BioID read by immunoblot: BirA fusions transiently expressed in HeLa cells, lysates purified with streptavidin and probed for the candidate (Supplementary Fig. S1). (Immunoblotting shows a protein as a band on a membrane.)

Test [3] deals with T2, Myc-BirA-T7-mSOCS6 (mouse) (UniProt Q9JLY0).
T2 sequence: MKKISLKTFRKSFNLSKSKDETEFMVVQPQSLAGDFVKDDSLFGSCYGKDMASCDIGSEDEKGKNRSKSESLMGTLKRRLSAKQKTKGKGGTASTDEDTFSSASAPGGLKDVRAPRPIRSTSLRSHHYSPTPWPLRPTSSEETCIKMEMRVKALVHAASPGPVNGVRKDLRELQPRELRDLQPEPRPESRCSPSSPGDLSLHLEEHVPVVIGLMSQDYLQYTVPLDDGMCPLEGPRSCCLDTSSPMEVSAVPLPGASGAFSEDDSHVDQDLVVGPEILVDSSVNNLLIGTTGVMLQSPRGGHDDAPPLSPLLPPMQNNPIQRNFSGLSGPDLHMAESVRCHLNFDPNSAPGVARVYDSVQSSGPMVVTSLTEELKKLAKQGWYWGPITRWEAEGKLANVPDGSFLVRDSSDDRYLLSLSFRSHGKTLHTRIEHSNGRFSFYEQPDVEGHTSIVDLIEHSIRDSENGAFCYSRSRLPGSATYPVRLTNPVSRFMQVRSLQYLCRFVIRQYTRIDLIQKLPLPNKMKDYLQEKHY
Described as above.

In the next test the target is T3, 3xFlag-mSOCS6 (mouse) (UniProt Q9JLY0).
T3 sequence: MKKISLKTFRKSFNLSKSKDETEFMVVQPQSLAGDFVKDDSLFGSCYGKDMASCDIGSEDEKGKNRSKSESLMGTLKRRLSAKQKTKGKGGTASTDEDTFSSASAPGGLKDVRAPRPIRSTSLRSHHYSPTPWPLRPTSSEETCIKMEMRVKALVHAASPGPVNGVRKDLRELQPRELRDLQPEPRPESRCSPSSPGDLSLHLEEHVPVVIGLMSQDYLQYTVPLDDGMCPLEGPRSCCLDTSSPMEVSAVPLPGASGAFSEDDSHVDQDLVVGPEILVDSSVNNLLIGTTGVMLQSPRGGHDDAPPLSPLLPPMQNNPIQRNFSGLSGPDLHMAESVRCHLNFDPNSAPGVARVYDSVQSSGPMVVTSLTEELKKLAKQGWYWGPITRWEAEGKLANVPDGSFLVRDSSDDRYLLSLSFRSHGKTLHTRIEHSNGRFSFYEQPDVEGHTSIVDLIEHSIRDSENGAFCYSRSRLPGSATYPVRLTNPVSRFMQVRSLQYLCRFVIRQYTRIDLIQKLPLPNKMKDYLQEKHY
Nature of the test: affinity purification with mass spectrometry; Flag AP-MS: 3xFlag baits stably integrated in Flp-In T-Rex 293; 75 µM vanadate, 1 µM MLN4924, 1 µg/mL doxycycline for 24 hr; FLAG-M2 magnetic beads, on-bead trypsin; SAINTq, Bayesian false discovery rate <7.7%.

In test [4] the target is T2, Myc-BirA-T7-mSOCS6 (mouse). Nature of the test: proximity labelling; BioID with LC-MS/MS: Myc-BirA-T7 baits stably integrated in Flp-In T-Rex 293; 75 µM vanadate, 1 µM MLN4924, 1 µg/mL doxycycline and 2 mM biotin for 24 hr; RIPA lysis, streptavidin-Sepharose beads, on-bead trypsin; SAINTq, Bayesian false discovery rate <10%.
For a further test, the target named is BirA-SOCS2^R73K (mouse) (UniProt O35717). Nature of the test: proximity labelling; BioID read by immunoblot: BirA fusions transiently expressed in HeLa cells, lysates purified with streptavidin and probed for the candidate (Supplementary Fig. S1).
Test [5] has as its target T4, SOCS6 bait of the two proteomic screens (Myc-BirA-T7-mSOCS6 or 3xFlag-mSOCS6) (mouse) (UniProt Q9JLY0).
T4 sequence: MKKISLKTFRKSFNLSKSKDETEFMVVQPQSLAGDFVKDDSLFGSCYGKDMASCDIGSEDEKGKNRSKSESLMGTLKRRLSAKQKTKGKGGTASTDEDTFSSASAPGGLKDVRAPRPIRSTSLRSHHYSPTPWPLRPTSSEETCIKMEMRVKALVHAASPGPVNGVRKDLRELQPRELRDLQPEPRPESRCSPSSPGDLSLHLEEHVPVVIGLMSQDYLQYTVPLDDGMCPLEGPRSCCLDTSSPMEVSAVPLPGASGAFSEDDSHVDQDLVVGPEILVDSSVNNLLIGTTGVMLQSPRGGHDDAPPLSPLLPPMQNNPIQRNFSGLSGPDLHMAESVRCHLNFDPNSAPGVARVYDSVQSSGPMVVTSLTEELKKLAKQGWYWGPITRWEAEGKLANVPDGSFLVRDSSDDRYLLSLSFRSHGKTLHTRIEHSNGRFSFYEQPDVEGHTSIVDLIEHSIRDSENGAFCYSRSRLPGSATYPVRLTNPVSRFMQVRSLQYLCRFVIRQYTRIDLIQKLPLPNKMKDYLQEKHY
The test can be described thus: proximity labelling + affinity purification with mass spectrometry; hits of the BioID and Flag AP-MS screens in Flp-In T-Rex 293 (vanadate, MLN4924, doxycycline) for which the text does not tell which of the two methods found them; Bayesian false discovery rate <10%.

Test [6] concerns the target T1, Myc-BirA-T7-mSOCS2 (mouse). The test can be described thus: proximity labelling; BioID read by immunoblot: 293T transiently transfected; 75 µM sodium orthovanadate, 1 µM MLN4924 and 2 mM biotin for 24 hr; streptavidin agarose beads.

Results are given in words; binding and its absence hold for the method and conditions named. Binding seen in cells or lysates may run through a third protein. These calls come from enrichment with a bait or labelling near it, and not all partners need be listed. For some of these results: No binding means not detected with the bait. For some of these results: Tags and fused reporters may be left off the sequences shown.

For the molecule COPS2 (from UniProt P61201 1-443), in test [1], the binding result is on record as “binds”.

Regarding COPS3 (from UniProt Q9UNS2 1-423), the binding entry in test [1] is given as “binds”.

As for “CTNNB1 (β-catenin) (from UniProt P35222 1-781)”, the binding result in test [2] is “binds”; in test [3], “no binding”; in test [1], “binds”.

Consider Crk (from UniProt P46108 1-304), for which the figures for the binding entry in test [2], in test [3] and in test [1] were “binds”, “no binding” and “binds”, respectively.

In the case of Cullin5 (from UniProt Q93034 1-780), the binding entry (in test [3]; with 3xFlag-mSOCS6 (mouse); in test [4]) was “binds” each time.

Turning to Ezrin (from UniProt P15311 1-586), the binding result in test [2] was “binds”; in test [3] it was “no binding”; in test [1], “binds”.

On to GAPDH (from UniProt P04406 1-335), for which the binding entry with BirA-SOCS2^R73K (mouse) is “no binding”.

For the molecule STAT5b (from UniProt P51692 1-787), the binding entry in test [1] is reported as “binds”.

Turning to “TCEB2 (ElgB) (from UniProt Q15370 1-118)”, the binding result (with 3xFlag-mSOCS6 (mouse); in test [4]) was “binds” in each case.

Turning to “UBQLN1 (PLIC1) (from UniProt Q9UMX0 1-589)”, the binding entry in test [5] is “binds”.

In the case of “WDR28 (human (endogenous in Flp-In T-Rex 293))”, in test [5], the binding entry was “binds”.

For the molecule “WDR40 (human (endogenous in Flp-In T-Rex 293))”, in test [5], the binding entry is given as “binds”.

Consider “ephrin type-A receptor 2 (EphA2), endogenous (from UniProt P29317 24-976)”, for which the binding entry in test [6] is “binds”; in test [2], “binds”; in test [3], “no binding”; in test [1] it was “binds”.

Take “vacuolar ATPase subunit ATP6V1E1 (from UniProt P36543 1-226)”: the binding result in test [1] was “binds”.

B1: YWHAQ (protein, UniProt P27348 1-245)
chain: MEKTELIQKAKLAEQAERYDDMATCMKAVTEQGAELSNEERNLLSVAYKNVVGGRRSAWRVISSIEQKTDTSDKKLQLIKDYREKVESELRSICTTVLELLDKYLIANATNPESKVFYLKMKGDYFRYLAEVACGDDRKQTIDNSQGAYQEAFDISKKEMQPTHPIRLGLALNFSVFYYEILNNPELACTLAKTAFDEAIAELDTLNEDSYKDSTLIMQLLRDNLTLWTSDSAGEECDAAEGAEN
Regarding B1, the binding entry in test [5] is given as “binds”.

B2: YWHAH (protein, UniProt Q04917 1-246)
chain: MGDREQLLQRARLAEQAERYDDMASAMKAVTELNEPLSNEDRNLLSVAYKNVVGARRSSWRVISSIEQKTMADGNEKKLEKVKAYREKIEKELETVCNDVLSLLDKFLIKNCNDFQYESKVFYLKMKGDYYRYLAEVASGEKKNSVVEASEAAYKEAFEISKEQMQPTHPIRLGLALNFSVFYYEIQNAPEQACLLAKQAFDDAIAELDTLNEDSYKDSTLIMQLLRDNLTLWTSDQQDEEAGEGN
In the case of B2, in test [5], the binding entry is “binds”.

B3: SCAMP3 (protein, UniProt O14828 1-347)
chain: MAQSRDGGNPFAEPSELDNPFQDPAVIQHRPSRQYATLDVYNPFETREPPPAYEPPAPAPLPPPSAPSLQPSRKLSPTEPKNYGSYSTQASAAAATAELLKKQEELNRKAEELDRRERELQHAALGGTATRQNNWPPLPSFCPVQPCFFQDISMEIPQEFQKTVSTMYYLWMCSTLALLLNFLACLASFCVETNNGAGFGLSILWVLLFTPCSFVCWYRPMYKAFRSDSSFNFFVFFFIFFVQDVLFVLQAIGIPGWGFSGWISALVVPKGNTAVSVLMLLVALLFTGIAVLGIVMLKRIHSLYRRTGASFQKAQQEFAAGVFSNPAVRTAAANAAAGAAENAFRAP
For B3, the binding entry in test [1] was “binds”.

B4: TES (protein, UniProt Q9UGI8 1-421)
chain: MDLENKVKKMGLGHEQGFGAPCLKCKEKCEGFELHFWRKICRNCKCGQEEHDVLLSNEEDRKVGKLFEDTKYTTLIAKLKSDGIPMYKRNVMILTNPVAAKKNVSINTVTYEWAPPVQNQALARQYMQMLPKEKQPVAGSEGAQYRKKQLAKQLPAHDQDPSKCHELSPREVKEMEQFVKKYKSEALGVGDVKLPCEMDAQGPKQMNIPGGDRSTPAAVGAMEDKSAEHKRTQYSCYCCKLSMKEGDPAIYAERAGYDKLWHPACFVCSTCHELLVDMIYFWKNEKLYCGRHYCDSEKPRCAGCDELIFSNEYTQAENQNWHLKHFCCFDCDSILAGEIYVMVNDKPVCKPCYVKNHAVVCQGCHNAIDPEVQRVTYNNFSWHASTECFLCSCCSKCLIGQKFMPVEGMVFCSVECKKRMS
As for B4, the binding entry in test [5] is on record as “binds”.

B5: YWHAG (protein, UniProt P61981 1-247)
chain: MVDREQLVQKARLAEQAERYDDMAAAMKNVTELNEPLSNEERNLLSVAYKNVVGARRSSWRVISSIEQKTSADGNEKKIEMVRAYREKIEKELEAVCQDVLSLLDNYLIKNCSETQYESKVFYLKMKGDYYRYLAEVATGEKRATVVESSEKAYSEAHEISKEHMQPTHPIRLGLALNYSVFYYEIQNAPEQACHLAKTAFDDAIAELDTLNEDSYKDSTLIMQLLRDNLTLWTSDQQDDDGGEGNN
Turning to B5, the binding entry in test [5] is on record as “binds”.

B6: DCUN1D5 (DCNL5) (protein, UniProt Q9BTE7 1-237)
chain: MPVKKKRKSPGVAAAVAEDGGLKKCKISSYCRSQPPARLISGEEHFSSKKCLAWFYEYAGPDEVVGPEGMEKFCEDIGVEPENIIMLVLAWKLEAESMGFFTKEEWLKGMTSLQCDCTEKLQNKFDFLRSQLNDISSFKNIYRYAFDFARDKDQRSLDIDTAKSMLALLLGRTWPLFSVFYQYLEQSKYRVMNKDQWYNVLEFSRTVHADLSNYDEDGAWPVLLDEFVEWQKVRQTS
For B6, the binding result in test [1] and in test [5] was “binds” in each case.

B7: Shroom1 (protein, UniProt Q2M3G4 1-852)
chain: MEALGPGGDRASPASSTSSLDLWHLSMRADSAYSSFSAASGGPEPRTQSPGTDLLPYLDWDYVRVVWGGPGPAPPDAALCTSPRPRPAVAARSGPQPTEVPGTPGPLNRQATPLLYALAAEAEAAAQAAEPPSPPASRAAYRQRLQGAQRRVLRETSFQRKELRMSLPARLRPTVPARPPATHPRSASLSHPGGEGEPARSRAPAPGTAGRGPLANQQRKWCFSEPGKLDRVGRGGGPARECLGEACSSSGLPGPEPLEFQHPALAKFEDHEVGWLPETQPQGSMNLDSGSLKLGDAFRPASRSRSASGEVLGSWGGSGGTIPIVQAVPQGAETPRPLFQTKLSRFLPQKEAAVMYPAELPQSSPADSEQRVSETCIVPAWLPSLPDEVFLEEAPLVRMRSPPDPHASQGPPASVHASDQPYGTGLGQRTGQVTVPTEYPLHECPGTAGADDCWQGVNGSVGISRPTSHTPTGTANDNIPTIDPTGLTTNPPTAAESDLLKPVPADALGLSGNDTPGPSHNTALARGTGQPGSRPTWPSQCLEELVQELARLDPSLCDPLASQPSPEPPLGLLDGLIPLAEVRAAMRPACGEAGEEAASTFEPGSYQFSFTQLLPAPREETRLENPATHPVLDQPCGQGLPAPNNSIQGKKVELAARLQKMLQDLHTEQERLQGEAQAWARRQAALEAAVRQACAPQELERFSRFMADLERVLGLLLLLGSRLARVRRALARAASDSDPDEQASLLQRLRLLQRQEEDAKELKEHVARRERAVREVLVRALPVEELRVYCALLAGKAAVLAQQRNLDERIRLLQDQLDAIRDDLGHHAPSPSPARPPGTCPPVQPPFPLLLT
Take B7: in test [1], the binding result was “binds”.

These data come from PMC5589800.
